# Assay results: PubChem BioAssay AID1671190 (National Center for Advancing Translational Sciences (NCATS), 2021)
# The chains behind the UniProt entries cited, without tags or fusion partners. Where a name states a change or a piece, a line headed by the entry shows the natural chain unless it says otherwise.
# UniProt P18054: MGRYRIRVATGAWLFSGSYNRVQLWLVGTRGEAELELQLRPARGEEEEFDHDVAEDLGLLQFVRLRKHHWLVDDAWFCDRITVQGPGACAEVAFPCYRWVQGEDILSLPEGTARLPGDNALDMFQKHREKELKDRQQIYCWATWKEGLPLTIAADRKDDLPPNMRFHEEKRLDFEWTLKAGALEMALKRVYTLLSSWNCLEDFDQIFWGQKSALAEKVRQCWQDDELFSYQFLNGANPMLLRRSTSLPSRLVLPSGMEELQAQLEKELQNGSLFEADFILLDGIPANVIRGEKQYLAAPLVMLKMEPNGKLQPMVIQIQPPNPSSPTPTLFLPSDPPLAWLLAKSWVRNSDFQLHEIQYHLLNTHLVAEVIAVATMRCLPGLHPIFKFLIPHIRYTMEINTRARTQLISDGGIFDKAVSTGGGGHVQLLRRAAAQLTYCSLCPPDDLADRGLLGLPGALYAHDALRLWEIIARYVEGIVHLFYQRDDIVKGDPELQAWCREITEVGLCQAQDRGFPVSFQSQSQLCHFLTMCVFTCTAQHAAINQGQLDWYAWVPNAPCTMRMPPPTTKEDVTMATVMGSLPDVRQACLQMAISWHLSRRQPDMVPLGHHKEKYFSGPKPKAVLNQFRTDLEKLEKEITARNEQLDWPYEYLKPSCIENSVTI
# Several values for one entry are separate records, joined by “and”; a condition that tells them apart may be missing. Equal entries are not always repeated. Among all 580,000 compounds or so, about 6,100 (1.1%) were called active. This list was built around the results that the source calls inconclusive (neither active nor inactive); the mix of calls is not that of the screen. Calls come from the whole dose curve; as a rule, active = well fitted inhibition curve with a large enough effect; inconclusive = small, poorly fitted or top-dose-only effect, or another doubt; inactive = no such curve, though single readings can be large or run the other way. Potencies beside an inconclusive call are fits to weak or partial responses and may not hold up.
# Target: Polyunsaturated fatty acid lipoxygenase ALOX12 (Homo sapiens) (UniProt P18054)
# Assay: Primary qHTS assay for inhibitors of human arachidonate 12S-lipoxygenase (ALOX12): Round 2
# Details: purified 12hLO, xylenol orange hydroperoxide absorbance; series mostly up to 108 µM
# In short: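 Hydroperoxide product was detected by ferrous iron/xylenol orange as the 573 to 405 nm absorbance ratio. Arachidonic acid at 40 uM (final) was turned over for 30 min at room temperature by 150 nM human 12hLO, pH 7.0 Hepes buffer, after 15 min compound preincubation.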
# Potency is the fitted concentration of half-maximal effect.
row,SMILES,Potency
1,COc1ccccc1Cc1c(-c2ccc(OC)c(OC)c2)nc2ccc(Cl)cn12,"inconclusive: 112 µM [inhibitor, single point]"
2,O=C(NC12CC3CC(CC(C3)C1)C2)c1ccc(-c2cccc(Cl)c2)o1,"inconclusive: 3.16 µM [inhibitor, full curve, poor fit]"
3,CCc1ccc(Nc2n[n+](-c3ccccc3)c(-c3c(Cl)cccc3Cl)s2)cc1,"inconclusive: 50.1 µM [inhibitor, partial curve, poor fit]"
4,COc1ccc(-c2nc(C(C)C)nc3c2CCN(C(=O)c2ccccc2F)CC3)cc1,"inconclusive: 39.8 µM [inhibitor, partial curve, poor fit]"
5,CCN(C)C(=O)CCc1c(C)nn(-c2cccc(C)c2)c1Oc1ccccc1,"inconclusive: 70.8 µM [inhibitor, single point]"
6,Cc1cc(C)c2c(CN3CCN(Cc4ccc5c(c4)OCO5)CC3)cc(=O)oc2c1,"inconclusive: 4.47 µM [inhibitor, full curve, poor fit]"
7,COc1ccccc1CNS(=O)(=O)c1ccc(-c2cc(C(F)(F)F)on2)s1,"inconclusive: 158 µM [inhibitor, partial curve, poor fit]"
8,COc1ccc2c(c1)C(n1c(C)ccc1C)C(=O)N2Cc1ccc(Cl)nc1 (stereo unspecified),"inconclusive: 39.8 µM [inhibitor, partial curve, poor fit]"
9,C(=C\c1ccccc1)/CN1CCN(Cc2ccc3c(c2)OCO3)CC1,"inconclusive: 39.8 µM [inhibitor, partial curve, poor fit]"
10,Cc1ccc(CN(C)C(=O)Cc2c(C)nc3ccccc3c2C)o1,inactive
11,CCCCn1c(=O)[nH]c(=O)c2c1nc(COC(=O)C1(c3ccc(Cl)cc3)CC1)n2CC,"inconclusive: 56.2 µM [inhibitor, partial curve, poor fit]"
12,O=C(O)CNC(=O)C1CCOCC1,"inconclusive: 44.7 µM [inhibitor, partial curve, poor fit]"
13,Cc1ccc(C)c(-c2cc(C(=O)Nc3cccnc3)c3ccccc3n2)c1,inactive
14,COCCn1c(=O)c(-c2ccccc2)nc2cnc(N(C)C)nc21,"inconclusive: 100 µM [inhibitor, single point]"
15,COc1cc(CC(=O)NC2CCCC2)cc(OC)c1OC,"inconclusive: 100 µM [inhibitor, single point]"
16,CCOC(=O)c1nnn(-c2ccc([N+](=O)[O-])cc2)c1C,inactive
17,CCN(CC)CCN(C(=O)c1ccc2ccccc2c1)c1nc2ccc(OC)cc2s1,"inconclusive: 50.1 µM [inhibitor, partial curve, poor fit]"
18,COC(=O)c1ccc2nc(-c3ccc(C)cc3)c(CC3CCCCC3)n2c1,"inconclusive: 10 µM [inhibitor, full curve, poor fit]"
19,O=C(N/C=C/c1ccco1)NCc1ccccc1,"inconclusive: 50.1 µM [inhibitor, partial curve, poor fit]"
20,Cc1ccc(C)c(NC(=S)Nc2cccc3cnccc23)c1,"inconclusive: 56.2 µM [inhibitor, partial curve, poor fit]"
21,CC(=O)NC(c1ccccc1)c1cc([N+](=O)[O-])c2cccnc2c1O (stereo unspecified),"inconclusive: 3.16 µM [inhibitor, full curve, poor fit]"

row,SMILES,Potency
1,C=CC[C@@H](CC(=O)N(CCO)Cc1ccccc1)C(=O)N[C@H](COC(=O)[C@@H](CC=C)CC(=O)OC(C)(C)C)Cc1c[nH]c2ccccc12,"inconclusive: 79.4 µM [inhibitor, partial curve, poor fit]"
2,COc1cc(C2CC(=O)N3CN(Cc4ccccc4)CSC3=C2C#N)cc(OC)c1OC (stereo unspecified),"inconclusive: 6.31 µM [inhibitor, full curve, poor fit]"
3,O=Cc1ccc([B-](F)(F)F)s1,"inconclusive: 3.16 µM [inhibitor, full curve, poor fit]"
4,COc1ccc(C(=O)/C=C/c2ccccc2F)c(OC(=O)c2ccc([N+](=O)[O-])cc2)c1,"inconclusive: 5.62 µM [inhibitor, partial curve, poor fit]"
5,COc1ccc(/C=C/C(=O)/C=C/c2ccc(OC)cc2)cc1,inactive
6,c1ccc(CSc2nccc(-c3ccco3)n2)cc1,"inconclusive: 141 µM [inhibitor, single point]"
7,O=C(O)C(c1c[nH]c2cc(Cl)ccc12)N1CCN(Cc2ccccn2)CC1 (stereo unspecified),inactive
8,Fc1ccc(-c2noc([C@@H]3Cc4nc[nH]c4CN3Cc3cccs3)n2)cc1Cl,inactive
9,O=C1c2c(O)cc(O)cc2O[C@H](c2ccc(O)c(O)c2)[C@@H]1O,"inconclusive: 39.8 µM [inhibitor, partial curve, poor fit]"
10,O=C1NCCCC2c3c(cc(Br)c(O)c3Br)OC12N1CCOCC1 (stereo unspecified),"inconclusive: 50.1 µM [inhibitor, partial curve, poor fit]"
11,CCOc1ccc(NC(=O)c2ccc3c(SCC(=O)O)c4c(nc3c2)CCC4)cc1,"inconclusive: 56.2 µM [inhibitor, partial curve, poor fit]"
12,Cc1ccc(C(=O)C(C(=O)/C=C/c2ccccc2)=C2SCCCS2)cc1,"inconclusive: 25.1 µM [inhibitor, single point]"
13,CN1CCCN(C(c2ccccc2)c2ccc(Cl)cc2)CC1 (stereo unspecified),"inconclusive: 31.6 µM [inhibitor, partial curve]"
14,CCOC(=O)[C@H](CCc1ccccc1)N[C@@H](C)C(=O)N1C(=O)N(C)C[C@H]1C(=O)O,"inconclusive: 12.6 µM [inhibitor, partial curve] and inconclusive: 4.05 µM [inhibitor, partial curve]"
15,CCCCCn1c(NC(=O)c2ccco2)c(S(=O)(=O)c2ccc(C)cc2)c2nc3ccccc3nc21,"inconclusive: 25.1 µM [inhibitor, full curve]"
16,C[C@@H]1C[C@H]2[C@@H]3CCC4=CC(=O)C=C[C@]4(C)[C@@]3(Cl)[C@@H](O)C[C@]2(C)[C@@]1(OC(=O)c1ccco1)C(=O)CCl,"inconclusive: 6.11 µM [inhibitor, partial curve, poor fit]"
17,O=C1CN(C(=O)/C=C/c2ccc(Cl)cc2)c2ccccc2N1,"inconclusive: 50.1 µM [inhibitor, partial curve, poor fit]"
18,Cc1cc(C)c(/C=C/c2ccc3ccccc3n2)c(C)c1,"inconclusive: 14.1 µM [inhibitor, full curve, poor fit]"
19,O=C(N/N=C/c1oc(O)c2ccccc12)c1ccccc1O,inactive
20,CCCCNC(=O)C1(C)CCN1C(=O)c1cccc2c1OCCO2 (stereo unspecified),inactive
21,COC1CCN(C(=O)c2cnc3c(c2)N([S+](=O)([O-])c2cccnc2)CCC3)CC1,inactive

row,SMILES,Potency
1,OCc1ccccc1OCCCN1CCC(Cc2ccccc2)CC1,"inconclusive: 5.01 µM [inhibitor, full curve, poor fit]"
2,Cc1cnc(C2CCOCC2)n1C1CCCN(C(=O)c2cn(C)cn2)C1 (stereo unspecified),inactive
3,CCOC(=O)c1c(Nc2cccc(C(=O)OC)c2)nnc(-c2ccccc2)c1-c1ccccc1,inactive
4,COc1cc2c(cc1OC)C(c1ccc(SC)cc1)CC(=O)N2 (stereo unspecified),inactive
5,Cc1cccc(N2CCN(S(=O)(=O)c3ccc4c(c3)n(C)c(=O)c(=O)n4C)CC2C)c1 (stereo unspecified),inactive
6,CCn1cc(CCC(=O)NC(C)c2ccccc2)c2ccccc21 (stereo unspecified),"inconclusive: 63.1 µM [inhibitor, partial curve, poor fit]"
7,CCOC(=O)C1=CCC(c2ccccc2Cl)N(S(=O)(=O)c2ccc(C)cc2)C1 (stereo unspecified),"inconclusive: 112 µM [inhibitor, partial curve, poor fit]"
8,Cc1ccc(N2C(=O)N(CC(=O)Nc3ccc(C)cc3[N+](=O)[O-])C(=O)C2C)cc1 (stereo unspecified),"inconclusive: 22.4 µM [inhibitor, full curve, poor fit]"
9,CC(C)Cc1ccc(CN2CCN3C(=O)CNC(=O)C3C2)cc1 (stereo unspecified),inactive
10,COc1cccc(C(C)(O)c2nc(-c3ccoc3)cs2)c1 (stereo unspecified),"inconclusive: 50.1 µM [inhibitor, partial curve, poor fit]"
11,O=C1CN(C(=O)CN2CCN(S(=O)(=O)c3ccccc3F)CC2)c2ccccc2N1,"inconclusive: 141 µM [inhibitor, partial curve, poor fit]"
12,Cc1cc(Br)ccc1NC(=O)CN(C)C(=O)CN1C(=O)NC(C)(C2CC2)C1=O (stereo unspecified),inactive
13,COCCCNC(=O)c1c(NC(=O)C2COc3ccccc3O2)sc2c1CCCC2 (stereo unspecified),"inconclusive: 141 µM [inhibitor, partial curve, poor fit]"
14,CC(C)(Cc1ccc(O)cc1)NC(=O)c1ccccc1,inactive
15,CCOC(=O)CSC1=Nc2ccccc2C2=NC(CC(=O)NCc3ccc4c(c3)OCO4)C(=O)N12 (stereo unspecified),"inconclusive: 8.91 µM [inhibitor, full curve, poor fit]"
16,COc1ccc([N+](=O)[O-])cc1NC(=O)C(C)OC(=O)/C=C/c1ccco1 (stereo unspecified),"inconclusive: 50.1 µM [inhibitor, partial curve, poor fit]"
17,Cc1ccc2c(=O)cc(C(=O)Nc3ccc(S(=O)(=O)N4CCCC(C)C4)cc3)oc2c1 (stereo unspecified),inactive
18,CN1CC2(CCN(Cc3ccc(-c4ccc(Cl)cc4)o3)C2)OC1=O (stereo unspecified),"inconclusive: 10 µM [inhibitor, full curve]"
19,O=C(C[C@@H]1CCNC[C@@H]1Cc1cc(-c2ccc(F)cc2)on1)N1CCC(Cc2ccccc2)CC1,"inconclusive: 14.1 µM [inhibitor, full curve, poor fit]"

# A different layout for 2 compounds above.
row | SMILES | Potency
8 | Cc1ccc(N2C(=O)N(CC(=O)Nc3ccc(C)cc3[N+](=O)[O-])C(=O)C2C)cc1 (stereo unspecified) | inconclusive: 22.4 µM [inhibitor, full curve, poor fit]
17 | Cc1ccc2c(=O)cc(C(=O)Nc3ccc(S(=O)(=O)N4CCCC(C)C4)cc3)oc2c1 (stereo unspecified) | inactive
